{
  "source": "patent US5750354A",
  "about": "“Lipoxin transport system and uses therefor” (priority 1994, dated 1998)",
  "tested_on": "lipoxin transport system",
  "assay": "[3H]LXA4 influx into human neutrophils (unidirectional tracer flux)",
  "conditions": "pHo 5.0-8.3, titration curve fit",
  "note": "“And” between values parts separate entries of the source, which are not always exact repeats. Identical values can stand only once.",
  "data": [
    {"smiles": "CCCCC[C@H](O)/C=C/C=C\\C=C\\C=C\\[C@@H](O)[C@@H](O)CCCC(=O)O", "note": "[LXA4, (5S,6R,15S)-trihydroxy-7,9,13-trans-11-cis-eicosatetraenoic acid]", "values": [
      {"measurement": "apparent pK' of pH dependence of [3H]LXA4 influx", "value": "5.9±0.1 and 5.9"}
    ]}
  ]
}
